The test system of test [1] is Saos-2. The test can be described thus: cell viability (CCK-8) relative to DMSO control (% of control); higher = less cytotoxic. The conditions noted are these: 10 µM; 48 h.
Test [2] has as its system U2OS. Described as above. The conditions noted are these: 10 µM; 48 h.

SMILES strings stand for the structures. Where a name gives a salt, the structure may show the parent alone. The list shows a part of the results. Most values come without repeats; read them as rough.

On to `CN1CCN(C2=Nc3ccccc3Oc3ccc(Cl)cc32)CC1` [Loxapine succinate], for which the cell viability in test [1] is 113; in test [2] it was 117.

As for `O=C1CN(/N=C/c2ccc(-c3ccc([N+](=O)[O-])cc3)o2)C(=O)N1` [Dantrolene . sodium], the figures for the cell viability in test [1] and in test [2] were 106 and 90.3, respectively.

For the compound `CC(=O)Oc1ccccc1C(=O)O` [Aspirin (Acetylsalicylic Acid)], the cell viability in test [1] amounted to 65.6; in test [2] it was 97.7.

As for `COc1cc2nc(N3CCN(C(=O)c4ccco4)CC3)nc(N)c2cc1OC` [Prazosin hydrochloride], the values for the cell viability in test [1] and in test [2] were 56.1 and 123, respectively.

In the case of `NC1=NCC2c3ccccc3Cc3ccccc3N12` (stereo unspecified) [Epinastine·HCl], the cell viability in test [1] was determined as 113; in test [2], 81.

Regarding `O=NN(CCCl)C(=O)NC1CCCCC1` [Lomustine], the cell viability in test [1] came out at 59.4; in test [2], 126.

As for `CC1(C)C[C@@H]1C(=O)N/C(=C\CCCCSC[C@H](N)C(=O)O)C(=O)O` [Cilastatin Sodium], the results for the cell viability in test [1] and in test [2] were 68.7 and 102, respectively.

With `CCN(CC)CCOc1ccc(C(=C(Cl)c2ccccc2)c2ccccc2)cc1` [Clomiphene Citrate], the cell viability in test [1] turned out to be 58.5; in test [2], 83.6.

Take `CC1Cc2ccccc2N1NC(=O)c1ccc(Cl)c(S(N)(=O)=O)c1` (stereo unspecified) [Indapamide]: the cell viability in test [1] was 65.1; in test [2] it was 93.1.

Regarding `CCOC(=O)[C@H](CCc1ccccc1)N[C@@H](C)C(=O)N1CCC[C@H]1C(=O)O` [Enalapril], the results for the cell viability in test [1] and in test [2] were 71.5 and 106, respectively.

With `CC(=O)c1ccc(S(=O)(=O)NC(=O)NC2CCCCC2)cc1` [Acetohexamide], the cell viability in test [1] was 90.7; in test [2], 81.9.

Turning to `CC(C)(C(=O)O)c1ccc(C(O)CCCN2CCC(C(O)(c3ccccc3)c3ccccc3)CC2)cc1` (stereo unspecified) [Fexofenadine·HCl], the cell viability was found to be 101 in test [1] and 93.2 in test [2].

As for `COC(=O)C1=C(C)NC(C)=C(C(=O)OC(C)C)C1c1cccc2nonc12` (stereo unspecified) [Isradipine], the cell viability in test [1] and in test [2] was 120 throughout.

Turning to `COc1ccccc1OCCNCC(O)COc1cccc2[nH]c3ccccc3c12` (stereo unspecified) [Carvedilol], the cell viability in test [1] is 55.3; in test [2] it was 114.

With `CCCNCC(O)COc1ccccc1C(=O)CCc1ccccc1` (stereo unspecified) [Propafenone hydrochloride], the cell viability in test [1] was found to be 61.2; in test [2], 120.

`O=C1CCCC(=O)C1C(=O)c1ccc(C(F)(F)F)cc1[N+](=O)[O-]` [Nitisinone]: the cell viability in test [1] stood at 102; in test [2], 99.6.

In the case of `O=C(O)c1cc(/N=N/c2ccc(S(=O)(=O)Nc3ccccn3)cc2)ccc1O` [Sulfasalazine], the figures for the cell viability in test [1] and in test [2] were 69 and 112, respectively.

Turning to `CCC1=C[C@@H]2CN(C1)Cc1c([nH]c3ccccc13)[C@@](C(=O)OC)(c1cc3c(cc1OC)N(C)[C@H]1[C@@](O)(C(=O)OC)[C@H](OC(C)=O)[C@]4(CC)C=CCN5CC[C@]31[C@@H]54)C2` [Vinorelbine], the cell viability in test [1] was 28.1; in test [2] it was 80.1.

For the compound `CC1(C)S[C@@H]2[C@H](NC(=O)[C@H](N)c3ccc(O)cc3)C(=O)N2[C@H]1C(=O)O` [Amoxicillin], the cell viability in test [1] was 65.5; in test [2] it was 107.

Consider `CC(=O)N[C@@H](CS)C(=O)O` [N-Acetyl-L-cysteine], for which the values for the cell viability in test [1] and in test [2] were 92.9 and 85.3, respectively.

With `CCCN(CCC)CCc1cccc2c1CC(=O)N2` [Ropinirole·HCl], the results for the cell viability in test [1] and in test [2] were 106 and 103, respectively.

Turning to `CC(=O)Nc1c(I)c(NC(C)=O)c(I)c(C(=O)O)c1I` [Diatrizoate Meglumine], the cell viability in test [1] was 109; in test [2] it was 114.

As to `NC[C@H]1CC[C@H](C(=O)O)CC1` [Tranexamic Acid], the cell viability worked out at 66.7 in test [1] and 96.5 in test [2].

In the case of `Cc1cc(C2CCCCC2)n(O)c(=O)c1` [Ciclopirox], the cell viability in test [1] turned out to be 64.4; in test [2] it was 66.

Turning to `Cc1ccc(/C(=C\CN2CCCC2)c2cccc(/C=C/C(=O)O)n2)cc1` [Acrivastine], the values for the cell viability in test [1] and in test [2] were 92.5 and 87.6, respectively.

In the case of `C[C@H]1O[C@@H](O[C@H]2[C@@H](O)C[C@H](O[C@H]3[C@@H](O)C[C@H](O[C@H]4CC[C@@]5(C)[C@H](CC[C@@H]6[C@@H]5C[C@@H](O)[C@]5(C)[C@@H](C7=CC(=O)OC7)CC[C@]65O)C4)O[C@@H]3C)O[C@@H]2C)C[C@H](O)[C@@H]1O` [Digoxin], the cell viability in test [1] was 25.1; in test [2], 14.2.

Turning to `CCCCC1=NC2(CCCC2)C(=O)N1Cc1ccc(-c2ccccc2-c2nnn[nH]2)cc1` [Irbesartan], the cell viability in test [1] came out at 105; in test [2], 96.4.

With `NNc1nncc2ccccc12` [Hydralazine . hydrochloride], the cell viability in test [1] was determined as 113; in test [2], 82.7.

In the case of `COc1ccc2cc(CCC(C)=O)ccc2c1` [Nabumetone], the cell viability in test [1] stood at 70.5; in test [2], 95.

As to `C[C@H]1[C@H](NC(=O)/C(=N\OC(C)(C)C(=O)O)c2csc(N)n2)C(=O)N1S(=O)(=O)O` [Aztreonam], the cell viability in test [1] was 66.2; in test [2], 108.

With `O=C1Cc2cc(CCN3CCN(c4nsc5ccccc45)CC3)c(Cl)cc2N1` [Ziprasidone Hydrochloride Monohydrate], the results for the cell viability in test [1] and in test [2] were 135 and 87.2, respectively.

With `CN(C)CCc1c[nH]c2ccc(CS(=O)(=O)N3CCCC3)cc12` [Almotriptan malate], the cell viability was 106 in test [1] and 97.9 in test [2].

For `COc1cc([C@@H]2c3cc4c(cc3[C@@H](O[C@@H]3O[C@@H]5CO[C@@H](C)O[C@H]5[C@H](O)[C@H]3O)[C@H]3COC(=O)[C@H]23)OCO4)cc(OC)c1O` [Etoposide], the cell viability is 37.1 in test [1] and 69 in test [2].

The values are drawn from the supplement of paper PMC9433722.
